These are yes or no findings as the source states them, for the method shown. For some assays here: Binding seen in cells or lysates may run through a third protein. Some binding calls cover weakened binding; strength is not graded here. Tags and fused reporters may be left off the sequences shown.
T1: PER2-MYC (human) (UniProt O15055)
T1 sequence: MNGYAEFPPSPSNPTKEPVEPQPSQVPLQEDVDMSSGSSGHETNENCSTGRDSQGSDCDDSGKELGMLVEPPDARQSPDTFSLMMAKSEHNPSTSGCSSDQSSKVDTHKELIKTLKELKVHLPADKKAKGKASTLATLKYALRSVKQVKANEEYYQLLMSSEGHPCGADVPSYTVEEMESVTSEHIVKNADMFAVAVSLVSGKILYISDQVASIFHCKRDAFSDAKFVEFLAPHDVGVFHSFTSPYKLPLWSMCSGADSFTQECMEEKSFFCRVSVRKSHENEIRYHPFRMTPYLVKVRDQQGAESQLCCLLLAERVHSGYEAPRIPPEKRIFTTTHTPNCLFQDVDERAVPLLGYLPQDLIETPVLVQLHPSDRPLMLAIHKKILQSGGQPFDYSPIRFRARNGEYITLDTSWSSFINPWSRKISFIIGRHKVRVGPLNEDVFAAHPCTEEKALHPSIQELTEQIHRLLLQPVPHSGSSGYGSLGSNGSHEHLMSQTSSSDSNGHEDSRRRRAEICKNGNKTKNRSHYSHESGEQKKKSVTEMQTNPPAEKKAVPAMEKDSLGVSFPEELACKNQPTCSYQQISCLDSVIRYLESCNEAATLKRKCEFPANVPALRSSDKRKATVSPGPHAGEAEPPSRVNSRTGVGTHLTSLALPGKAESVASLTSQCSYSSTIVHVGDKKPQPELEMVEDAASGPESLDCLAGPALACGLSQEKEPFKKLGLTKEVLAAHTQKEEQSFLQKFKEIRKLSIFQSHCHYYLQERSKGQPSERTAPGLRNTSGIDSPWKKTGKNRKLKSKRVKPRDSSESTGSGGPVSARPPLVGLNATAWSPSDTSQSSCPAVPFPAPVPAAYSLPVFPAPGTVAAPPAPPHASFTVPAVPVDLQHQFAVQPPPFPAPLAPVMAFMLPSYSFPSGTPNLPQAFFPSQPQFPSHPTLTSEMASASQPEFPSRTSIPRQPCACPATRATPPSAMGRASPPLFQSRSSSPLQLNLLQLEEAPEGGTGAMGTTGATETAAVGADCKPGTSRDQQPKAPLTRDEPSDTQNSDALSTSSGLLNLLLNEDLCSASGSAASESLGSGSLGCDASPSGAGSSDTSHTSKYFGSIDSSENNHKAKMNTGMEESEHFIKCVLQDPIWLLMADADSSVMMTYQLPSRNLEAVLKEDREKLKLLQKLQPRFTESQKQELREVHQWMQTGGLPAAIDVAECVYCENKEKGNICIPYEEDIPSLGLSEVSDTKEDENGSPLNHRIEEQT

T2: full length PER2 (LTE cell-free expressed, eGFP or mCherry tagged) (human) (UniProt O15055)
T2 sequence: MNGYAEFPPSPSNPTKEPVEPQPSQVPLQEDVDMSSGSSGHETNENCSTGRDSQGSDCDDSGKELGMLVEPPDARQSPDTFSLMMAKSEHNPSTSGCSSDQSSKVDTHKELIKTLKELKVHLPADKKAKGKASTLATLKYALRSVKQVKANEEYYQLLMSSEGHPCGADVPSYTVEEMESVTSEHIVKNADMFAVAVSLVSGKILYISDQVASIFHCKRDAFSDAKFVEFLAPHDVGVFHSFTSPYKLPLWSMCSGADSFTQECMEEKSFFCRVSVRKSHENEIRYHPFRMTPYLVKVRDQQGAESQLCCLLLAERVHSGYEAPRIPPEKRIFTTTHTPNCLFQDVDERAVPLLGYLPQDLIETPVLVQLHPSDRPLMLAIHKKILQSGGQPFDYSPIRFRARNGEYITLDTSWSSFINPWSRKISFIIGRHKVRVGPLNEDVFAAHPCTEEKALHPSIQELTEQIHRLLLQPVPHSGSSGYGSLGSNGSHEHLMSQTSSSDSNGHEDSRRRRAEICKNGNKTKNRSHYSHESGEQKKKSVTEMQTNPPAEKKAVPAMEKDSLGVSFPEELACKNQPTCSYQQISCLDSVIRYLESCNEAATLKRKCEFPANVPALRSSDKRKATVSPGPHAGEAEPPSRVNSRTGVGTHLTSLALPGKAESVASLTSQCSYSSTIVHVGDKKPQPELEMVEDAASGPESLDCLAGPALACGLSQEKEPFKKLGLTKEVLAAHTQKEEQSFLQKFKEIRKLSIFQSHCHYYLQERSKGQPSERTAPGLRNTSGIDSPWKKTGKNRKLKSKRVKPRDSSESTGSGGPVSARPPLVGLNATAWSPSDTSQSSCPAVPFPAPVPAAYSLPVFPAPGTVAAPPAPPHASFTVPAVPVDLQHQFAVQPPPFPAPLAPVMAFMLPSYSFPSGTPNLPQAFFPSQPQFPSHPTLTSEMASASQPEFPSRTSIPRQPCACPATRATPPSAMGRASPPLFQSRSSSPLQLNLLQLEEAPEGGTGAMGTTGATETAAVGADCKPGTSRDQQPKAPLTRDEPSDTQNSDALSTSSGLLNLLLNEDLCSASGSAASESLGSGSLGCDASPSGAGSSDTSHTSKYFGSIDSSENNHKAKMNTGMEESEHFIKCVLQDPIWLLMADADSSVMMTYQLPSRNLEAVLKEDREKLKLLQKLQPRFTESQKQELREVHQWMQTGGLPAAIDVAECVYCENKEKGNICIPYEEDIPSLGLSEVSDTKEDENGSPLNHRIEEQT


Tests used:
PER2-MYC (human) = biological target: T1, PER2-MYC (human); assay: proximity ligation
[1] = biological target: T2, full length PER2 (LTE cell-free expressed, eGFP or mCherry tagged) (human); assay: AlphaScreen or HTRF

Binder	binding (PER2-MYC (human))	binding [1]
CAVIN3 (endogenous, HeLa) (protein, UniProt Q969G5 1-261) MRESALERGPVPEAPAGGPVHAVTVVTLLEKLASMLETLRERQGGLARRQGGLAGSVRRIQSGLGALSRSHDTTSNTLAQLLAKAERVSSHANAAQERAVRRAAQVQRLEANHGLLVARGKLHVLLFKEEGEVPASAFQKAPEPLGPADQSELGPEQLEAEVGESSDEEPVESRAQRLRRTGLQKVQSLRRALSGRKGPAAPPPTPVKPPRLGPGRSAEAQPEAQPALEPTLEPEPPQDTEEDPGRPGAAEEALLQMESVA	binds	–
CAVIN3 full length (FL), LTE cell-free expressed (protein, UniProt Q969G5 1-261) MRESALERGPVPEAPAGGPVHAVTVVTLLEKLASMLETLRERQGGLARRQGGLAGSVRRIQSGLGALSRSHDTTSNTLAQLLAKAERVSSHANAAQERAVRRAAQVQRLEANHGLLVARGKLHVLLFKEEGEVPASAFQKAPEPLGPADQSELGPEQLEAEVGESSDEEPVESRAQRLRRTGLQKVQSLRRALSGRKGPAAPPPTPVKPPRLGPGRSAEAQPEAQPALEPTLEPEPPQDTEEDPGRPGAAEEALLQMESVA	–	binds

— paper doi:10.1101/2022.10.10.511681
